Article PMC6929984
These are yes or no findings as the source states them, for the method shown. In cells and extracts the contact can be indirect. Some results given as binding are weak or reduced against the parent protein; the word gives no strength.

Amino acid sequences for entries named in this document (tags omitted).
UniProt P43694: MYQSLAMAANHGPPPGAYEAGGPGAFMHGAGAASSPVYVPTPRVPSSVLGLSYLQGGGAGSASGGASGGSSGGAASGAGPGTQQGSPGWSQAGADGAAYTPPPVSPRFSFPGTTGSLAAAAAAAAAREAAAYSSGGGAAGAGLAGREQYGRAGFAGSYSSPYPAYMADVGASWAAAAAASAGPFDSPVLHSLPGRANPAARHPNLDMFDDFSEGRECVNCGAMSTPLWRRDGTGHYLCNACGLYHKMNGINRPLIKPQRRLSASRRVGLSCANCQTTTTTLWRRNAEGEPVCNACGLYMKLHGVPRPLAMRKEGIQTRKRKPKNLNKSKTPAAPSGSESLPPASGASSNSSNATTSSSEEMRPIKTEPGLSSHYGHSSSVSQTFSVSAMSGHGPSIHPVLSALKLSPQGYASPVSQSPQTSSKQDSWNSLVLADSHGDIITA
UniProt P35222: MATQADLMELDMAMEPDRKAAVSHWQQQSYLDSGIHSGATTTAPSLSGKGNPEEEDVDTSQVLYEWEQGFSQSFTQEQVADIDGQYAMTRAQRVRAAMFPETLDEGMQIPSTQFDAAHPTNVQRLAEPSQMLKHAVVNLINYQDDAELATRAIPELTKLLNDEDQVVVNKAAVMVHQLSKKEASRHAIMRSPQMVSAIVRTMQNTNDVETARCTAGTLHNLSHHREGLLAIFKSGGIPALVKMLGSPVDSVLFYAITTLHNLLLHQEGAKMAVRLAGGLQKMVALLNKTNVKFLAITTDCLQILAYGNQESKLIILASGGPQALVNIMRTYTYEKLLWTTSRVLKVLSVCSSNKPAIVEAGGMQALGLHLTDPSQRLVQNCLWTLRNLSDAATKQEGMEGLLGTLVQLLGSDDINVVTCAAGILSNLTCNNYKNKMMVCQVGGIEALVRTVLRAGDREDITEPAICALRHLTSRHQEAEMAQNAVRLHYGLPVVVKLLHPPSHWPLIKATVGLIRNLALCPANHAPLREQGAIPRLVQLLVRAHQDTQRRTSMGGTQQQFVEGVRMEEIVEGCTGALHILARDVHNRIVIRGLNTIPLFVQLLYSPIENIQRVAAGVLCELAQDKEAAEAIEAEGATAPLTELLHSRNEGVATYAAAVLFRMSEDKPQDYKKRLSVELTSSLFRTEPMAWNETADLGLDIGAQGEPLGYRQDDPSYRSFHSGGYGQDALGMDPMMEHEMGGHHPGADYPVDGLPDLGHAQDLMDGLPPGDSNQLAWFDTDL
UniProt Q9UJU2: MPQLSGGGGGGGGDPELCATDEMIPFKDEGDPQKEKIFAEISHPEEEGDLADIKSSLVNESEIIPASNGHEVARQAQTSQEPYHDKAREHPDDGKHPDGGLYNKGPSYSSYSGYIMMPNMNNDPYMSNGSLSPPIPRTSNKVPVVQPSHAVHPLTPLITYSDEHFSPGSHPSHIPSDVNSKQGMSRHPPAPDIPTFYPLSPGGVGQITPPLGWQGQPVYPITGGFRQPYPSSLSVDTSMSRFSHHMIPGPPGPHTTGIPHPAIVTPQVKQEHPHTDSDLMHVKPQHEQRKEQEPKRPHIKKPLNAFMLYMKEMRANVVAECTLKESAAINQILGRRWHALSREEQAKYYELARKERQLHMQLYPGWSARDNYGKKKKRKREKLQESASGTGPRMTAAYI
UniProt P36402: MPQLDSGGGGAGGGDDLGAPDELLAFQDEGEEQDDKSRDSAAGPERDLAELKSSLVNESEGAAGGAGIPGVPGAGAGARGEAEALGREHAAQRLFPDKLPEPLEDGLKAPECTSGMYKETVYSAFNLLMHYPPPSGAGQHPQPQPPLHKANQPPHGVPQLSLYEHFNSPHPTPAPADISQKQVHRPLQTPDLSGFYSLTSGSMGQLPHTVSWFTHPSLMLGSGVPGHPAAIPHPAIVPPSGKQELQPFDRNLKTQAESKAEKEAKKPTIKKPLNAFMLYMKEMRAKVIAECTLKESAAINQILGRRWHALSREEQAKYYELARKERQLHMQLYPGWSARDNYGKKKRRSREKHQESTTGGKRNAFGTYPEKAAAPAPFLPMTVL

Columns and labels:
[1] = biological target: GATA4 overexpressed in HEK293 cells (tag not told for the experiment) (human) (UniProt P43694); test: co-IP; GATA4 and β-catenin co-overexpressed in HEK293 cells; GATA4 precipitated (Figure S3B)
[2] = biological target: β-catenin, endogenous in HepG2 / HepG2i cells (human (endogenous in HepG2)) (UniProt P35222); test: co-IP; HepG2i cells (5×10^7) treated with or without DOX for 48 hours; immunoprecipitation with anti-β-catenin antibody; immunoblot for LEF1 and TCF1
[3] = biological target: β-catenin, endogenous in HepG2 / HepG2i cells (human (endogenous in HepG2)) (UniProt P35222); test: co-IP; endogenous proteins from 5×10^7 HepG2 cells; reciprocal, with anti-GATA4 or anti-β-catenin; immunoblot
[4] = biological target: Myc tagged full-length GATA4 (human) (UniProt P43694); test: co-IP; HEK293 cells (2×10^6) transfected with the indicated Myc- and FLAG-tagged plasmids (5 mg each (so in the source)); NP-40 lysis buffer; immunoblot (Figure 3E, 3F)
[5] = biological target: β-catenin overexpressed in HEK293 cells (tag not told for the experiment) (human) (UniProt P35222); test: co-IP; β-catenin with LEF1 or TCF1 in HEK293 cells, with or without ectopically overexpressed GATA4 (Figure S4H, S4I)
[6] = biological target: β-catenin-N-luciferase (human) (UniProt P35222); test: split reporter; split firefly luciferase (the paper: bimolecular fluorescence complementation assay): β-catenin-N-luciferase (0.1 mg as printed) with LEF1-C-luciferase or TCF1-C-luciferase, with or without GATA4; luciferase read 24 hours after transfection; HEK 293 cells in the legend, HepG2 in the text
[7] = biological target: GATA4, bacterially expressed (GST pull-down) (human) (UniProt P43694); test: pull-down; in vitro GST pull-down with bacterially expressed GATA4 and β-catenin; which one carried GST is not told
[8] = biological target: GATA4, endogenous in HepG2 cells (human (endogenous in HepG2)) (UniProt P43694); test: co-IP; endogenous proteins from 5×10^7 HepG2 cells; reciprocal, with anti-GATA4 or anti-β-catenin; immunoblot
[9] = biological target: GATA4 ectopically overexpressed in HepG2 cells (human) (UniProt P43694); test: co-IP; GATA4 ectopically overexpressed in HepG2 cells; GATA4 precipitated, endogenous β-catenin detected (Figure S3C)

β-catenin overexpressed in HEK293 cells (tag not told for the experiment) (from UniProt P35222 1-781)
binding [1]: binds

LEF1, endogenous in HepG2i cells (from UniProt Q9UJU2 1-399)
binding [2]: binds

GATA4, endogenous in HepG2 cells (from UniProt P43694 1-442)
binding [3]: binds

FLAG tagged β-catenin (from UniProt P35222 1-781)
binding [4]: binds

LEF1 overexpressed in HEK293 cells (from UniProt Q9UJU2 1-399)
binding [5]: binds

LEF1-C-luciferase (from UniProt Q9UJU2 1-399)
binding [6]: binds

β-catenin, bacterially expressed (GST pull-down) (from UniProt P35222 1-781)
binding [7]: binds

β-catenin, endogenous in HepG2 / HepG2i cells (from UniProt P35222 1-781)
binding [8]: binds
binding [9]: binds

TCF1, endogenous in HepG2i cells (from UniProt P36402 1-384)
binding [2]: binds

TCF1 overexpressed in HEK293 cells (from UniProt P36402 1-384)
binding [5]: binds
